Measured values as given in PubChem BioAssay AID493014 (National Center for Advancing Translational Sciences (NCATS), 2011).
The other results are listed elsewhere or left out. Shown are side measurements of this screen, not its main read-out; they come without a call. Most of these compounds were active or inconclusive in the main read-out, so they are no random draw. Words in brackets tell the shape of the fitted curve; partial curves, single points and poor fits give uncertain potencies.

Assay: qHTS Assay to Find Inhibitors of Chronic Active B-Cell Receptor Signaling
Conditions: ABC-DLBCL IkBa-CBG/CBR reporter, luminescence ratio (green luciferase fused to IkBa over red control in TMD8 lymphoma cells), 4 h
Outline: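 TMD8 human ABC-DLBCL cells with doxycycline-inducible IκBα–green luciferase fusion and unfused red luciferase, in 0.5% FBS medium; compounds up to 46 uM, 4 h at 37C. Green/red luminescence ratio, filter-overlap corrected, fitted to concentration-response curves.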

[1] = measured here: CBR red luminescence, cell number

| SMILES | AC50 [1] | AC50 (measured here: IkBa-CBG green luminescence) |
| --- | --- | --- |
| COc1ccc(CNC(=O)C(=O)NCC2OCCN2S(=O)(=O)c2ccc3c(c2)OCCO3)cc1 (stereo unspecified) | 7.31 µM [rising, partial curve, poor fit] | – |
| Cc1ccccc1Nc1nc(N)nc(CCl)n1 | 35.5 µM [falling, single point] | – |
| O=S(=O)(NCC(c1cccs1)S(=O)(=O)c1ccccc1)c1ccc(F)cc1 (stereo unspecified) | 0.794 µM [falling, single point] | – |
| O=C(NC(=S)Nc1ccc2c(c1)OCCO2)c1ccc(F)cc1Cl | 14.6 µM [falling, partial curve, poor fit] | – |
| O=C(NC1CCCc2ccccc21)c1ccc(F)cc1F (stereo unspecified) | 3.55 µM [rising, full curve, poor fit] | – |
| COc1ccc(CCNC(=O)CSc2nnc(-c3ccc(F)cc3)c3ccccc23)cc1OC | 32.6 µM [falling, partial curve, poor fit] | – |
| COc1ccc2c(Cl)c(C(=O)NCCCn3ccnc3)sc2c1 | 10.3 µM [rising, partial curve, poor fit] | – |
| Cc1ccsc1C(=O)OCC(=O)NCc1ccccc1 | 0.206 µM [rising, partial curve, poor fit] | – |
| Cc1ccc(S(=O)(=O)Nc2ccccc2/C=N/c2nc3ccccc3n2C)cc1 | 3.26 µM [rising, partial curve, poor fit] | – |
| CC(=O)Nc1ccc(NC(=O)C2CCCN2/C=C/C(=O)C(F)(F)F)cc1 (stereo unspecified) | 5.62 µM [falling, single point] | – |
| COCCNC(=O)c1cc2c(=O)n3cccc(C)c3nc2n1C | 11.6 µM [rising, partial curve, poor fit] | – |
| Nc1nc(N2CCN(C/C=C/c3ccccc3)CC2)nc2ccccc12 | 14.6 µM [rising, partial curve, poor fit] | – |
| CC(=O)Nc1cccc(C(=O)/C=C/c2ccc(C)cc2)c1 | 18.4 µM [falling, single point] | – |
| CCC(=O)NCCc1nc2ccccc2[nH]1 | 29.1 µM [falling, single point] | – |
| Cc1ccc(C=Nc2ccccc2C(N)=O)s1 | 29.1 µM [rising, single point] | – |
| CCCCOC(=O)c1ccc(NC(=S)NC(=O)c2c(Br)c(C)nn2C)cc1 | 0.326 µM [falling, full curve] | – |
| C=CCN(CC=C)CCOc1cccc2ccccc12 | 16.4 µM [rising, single point] | – |
| O=C(CCc1ccccc1)NNC(=O)c1cccc(F)c1 | 35.5 µM [falling, single point] | – |
| Cc1cc(NC(=O)CSc2nnc(-c3c[nH]c4ccccc34)n2-c2ccc(Cl)cc2)no1 | 23.1 µM [rising, single point] | – |
| O=C(COC(=O)Cc1ccc(S(=O)(=O)N2CCCCC2)s1)Nc1ccc2c(c1)OCO2 | 17.8 µM [rising, partial curve, poor fit] | – |
| CC1=C(C/C=C(\C)CCCC(C)CCCC(C)CCCC(C)C)C(=O)c2ccccc2C1=O (stereo unspecified) | 20.6 µM [falling, single point] | – |
| Cc1cccc(NC(=S)NC(=O)c2ccc(Br)o2)c1 | 17.8 µM [falling, partial curve, poor fit] | – |

Looked up by compound from above:

| SMILES | AC50 [1] | AC50 (measured here: IkBa-CBG green luminescence) |
| --- | --- | --- |
| O=C(CCc1ccccc1)NNC(=O)c1cccc(F)c1 | 35.5 µM [falling, single point] | – |
| CC(=O)Nc1ccc(NC(=O)C2CCCN2/C=C/C(=O)C(F)(F)F)cc1 (stereo unspecified) | 5.62 µM [falling, single point] | – |
| COCCNC(=O)c1cc2c(=O)n3cccc(C)c3nc2n1C | 11.6 µM [rising, partial curve, poor fit] | – |
| COc1ccc(CNC(=O)C(=O)NCC2OCCN2S(=O)(=O)c2ccc3c(c2)OCCO3)cc1 (stereo unspecified) | 7.31 µM [rising, partial curve, poor fit] | – |
| Cc1cccc(NC(=S)NC(=O)c2ccc(Br)o2)c1 | 17.8 µM [falling, partial curve, poor fit] | – |

Next part:

| SMILES | AC50 [1] | AC50 (measured here: IkBa-CBG green luminescence) |
| --- | --- | --- |
| COc1ccc(N(CC(=O)NCC(C)C)S(=O)(=O)c2ccccc2)cc1 | 0.794 µM [rising, full curve] | – |
| COc1cc(/C=C(/C#N)c2nc3ccccc3c(=O)[nH]2)ccc1O | 20.6 µM [falling, single point] | – |
| Cc1ccc2nc(NCc3ccccc3)c(C#N)cc2c1 | 1.58 µM [rising, full curve, poor fit] | – |
| O=C(CSc1nc2ccccc2o1)Nc1nc(-c2ccccc2)cs1 | 23.1 µM [falling, partial curve, poor fit] | – |
| O=C(N/N=C/c1c(O)ccc2ccccc12)c1[nH]ncc1Br | 18.4 µM [falling, partial curve] | – |
| CC(=O)Nc1ccc(NC(=O)CNC(=O)COc2ccccc2)cc1 | 14.1 µM [rising, partial curve] | – |
| COc1ccc(/C=C2/SC(=S)N(CCC(=O)O)C2=O)cc1 | 0.224 µM [falling, full curve, poor fit] | – |
| Cc1nn2c(=S)[nH]nc2[nH]c1=O | 20 µM [rising, partial curve, poor fit] | – |
| O=C(NCCCCCNC(=O)c1cccnc1)c1cccnc1 | 0.116 µM [falling, full curve, poor fit] | – |
| O=C(NC1CC1)C1=C[C@@H](c2csc3ccccc23)C[C@@H](OCCCCO)O1 | 8.91 µM [falling, partial curve, poor fit] | – |
| Cc1nn(-c2ccccc2)c2c1C(c1ccc(F)cc1)C(C#N)=C(N)O2 (stereo unspecified) | 16.4 µM [falling, single point] | – |
| Cc1cc(C(=O)C(=O)N(C)C)c(C)n1-c1ccc([N+](=O)[O-])cc1 | 8.2 µM [rising, partial curve, poor fit] | – |
| O=C(CN1C(=O)NC2(CCCC2)C1=O)Nc1ccc(F)c([N+](=O)[O-])c1 | 14.1 µM [falling, single point] | – |
| COCCCNC(=S)Nc1cccc(SC)c1 | 6.31 µM [falling, single point] | – |
| Cc1cc([N+](=O)[O-])nn1CC(=O)NCc1cccs1 | 35.5 µM [falling, single point] | – |
| COc1cccc(C2OC(=O)c3ccccc3N2C(C)=O)c1OC(C)=O (stereo unspecified) | 3.26 µM [falling, single point] | – |
| CC1CC(C)CN(C(=O)CSc2nnc(-c3ccc(Cl)cc3)o2)C1 (stereo unspecified) | 32.6 µM [rising, single point] | – |
| CC(=O)N(c1nc(/C=C\C(=O)O)cs1)c1ccccc1F | 0.447 µM [rising, full curve, poor fit] | – |
| CN(CCCNC(=O)c1cc2c(Cl)nc3ccccc3c2s1)Cc1ccccc1 | 15.8 µM [falling, single point] | – |
| CCOCCCn1c(SCC(=O)Nc2ccc(OC)cc2)nc2ccccc2c1=O | 0.562 µM [rising, full curve, poor fit] | – |
| COC(=O)c1cc2ccsc2n1CC(=O)Nc1cc(Cl)ccc1OC | 0.731 µM [falling, partial curve, poor fit] | – |
| Cc1cccc(C)c1OCC(=O)Nc1ncn[nH]1 | 0.146 µM [rising, full curve, poor fit] | – |

| SMILES | AC50 [1] | AC50 (measured here: IkBa-CBG green luminescence) |
| --- | --- | --- |
| COc1cc(-c2noc(C)c2C#Cc2ccsc2)cc(OC)c1OC | 5.62 µM [rising, full curve] | 7.08 µM [falling, partial curve] |
| CC(C)CC(=O)Nc1ccc(C(=O)Nc2cccc(O)c2)cc1 | 0.891 µM [falling, full curve, poor fit] | – |
| O=[N+]([O-])c1ccc(CNc2ccc(Cl)cc2)s1 | 11.2 µM [rising, partial curve] | – |
| O=c1[nH]c(=O)n(Cc2ccccc2)c2nc(-c3ccc(C(F)(F)F)cc3)n(CCO)c12 | 3.98 µM [rising, partial curve, poor fit] | – |
| COc1cccc(/C=N/NC(=O)c2c(C)nc3ccc(Cl)cn23)c1O | 20 µM [falling, partial curve, poor fit] | – |
| O=C(COc1ccccc1)Nc1ccc([N+](=O)[O-])cc1 | 5.8 µM [rising, full curve] | – |
| CCc1ccccc1OCC(=O)Nc1cccc(S(=O)(=O)N2CCCC2)c1 | 13 µM [falling, partial curve] | – |
| Cc1cc(=O)[nH]c2nnc(SCC(=O)Nc3ccc(OC(F)(F)F)cc3)n12 | 2.82 µM [rising, single point] | – |
| COc1ccc(CCNC(=O)NC2CCCCC2)cc1OC | 29.1 µM [falling, single point] | – |
| CCOc1ccc(NC(=O)COc2ccc(OC)cc2)cc1 | 22.4 µM [rising, single point] | – |
| Cc1cccc(C)c1NC(=O)Cn1c(=O)n(CCCC(=O)NCc2ccco2)c(=O)c2sccc21 | 12.6 µM [rising, partial curve, poor fit] | – |
| COc1cc2c(cc1NC(=O)c1ccc3c(c1)OCO3)oc1ccccc12 | 4.11 µM [rising, full curve, poor fit] | – |
| COC(=O)c1c(NC(=O)COc2ncnc3ccccc23)sc(C)c1C | 5.17 µM [falling, partial curve, poor fit] | – |
| Cc1c(C(=O)c2cccc(F)c2)c2ccccn2c1CCC#N | 35.5 µM [falling, single point] | – |
| COc1ccc(-c2cc3c(=O)n(CC(=O)NC4CCN(Cc5ccccc5)CC4)ncn3n2)cc1 | 1.03 µM [falling, full curve, poor fit] | – |
| COc1ccccc1NC(=O)NNC(=O)C(C)Oc1ccc2ccccc2c1 (stereo unspecified) | 14.1 µM [rising, single point] | – |
| O=C(NCCc1ccccc1)C(c1cccs1)N(C(=O)c1csnn1)C1CC1 (stereo unspecified) | 22.4 µM [rising, single point] | – |
| NC(=O)c1c(NC(=S)Nc2ccccc2)sc2c1CCCC2 | 1.12 µM [rising, full curve, poor fit] | – |
| Cc1cc(C(=O)OCC(=O)c2ccc3c(c2)OCCO3)c(C)o1 | 35.5 µM [rising, partial curve, poor fit] | – |
| O=C(Nc1cccc(O)c1)c1cc(-c2ccccc2Cl)on1 | 7.94 µM [falling, partial curve] | – |
| CCS(=O)(=O)c1ccc(O)c(NC(=O)COc2ccc(C)cc2)c1 | 29.1 µM [falling, single point] | – |
